Article PMC7259758 (PLoS ONE, 2020)

System: triple-exon skipping of MDM2 pre-mRNA in SK-MEL-2/Luc-MDM2 cells
Assay: TESLR (Triple Exon Skipping Luciferase Reporter) dose response
Conditions: Homo sapiens, SK-MEL-2, 4 h, read-out: TESLR IC50 in inducing triple exon skipping

IC50: > 10 µM
SMILES: CCc1cnn2c(NCc3ccc[n+]([O-])c3)cc(N3CCCC[C@H]3CCO)nc12 [dinaciclib]
